Assay results taken from patent US8946201B2, “Methods for inhibiting TGF-β” (Saint Louis University, priority 2007, dated 2015).
For at least one compound, name, drawing or mass did not settle the structure. Some entries share one result that the patent states for a list of compounds.

Tests used:
PAI-1 expression = test: TGF-β1-induced PAI-1 expression, Northern blot, Mv1Lu cells; type: cell-based, mink; settings: 50 pM TGF-β1
Protocol: (A, B, C, D, E, F) Cells were treated with 50 μg/ml cholesterol (A, B, C, D) and 50 μg/ml LDL (D) at 37° C. for 1 hr or with 1 μM fluvastatin or lovastatin (E) or several concentrations of fluvastatin (F) at 37° C. for 16 hr and then further incubated with increasing concentrations (as indicated) of TGF-β1 (A, B, C, E) or 50 pM TGF-β1 (D,F) for 2 hr. Northern blot analysis of PAI-1 and G3PDH was performed. A representative of a total of three analyses is shown (a). The relative intensities of the transcripts were quantified with a PhosphoImager. The ratio of the relative intensities of PAI-1 and G3PDH transcripts in cells treated without TGF-β1 and cholesterol, LDL or statins on the blot was taken as 1 fold or 100% of PAI-1 expression. The quantitative data from three independent analyses is shown (b). […] (G) Mv1Lu cells stably expressing a luciferase reporter gene driven by the PAI-1 promoter (MLECs-clone 32) were treated with increasing concentrations (as indicated) of cholesterol at 37 EC for 1 hr (a) or with 1 μM lovastatin at 37° C. for 16 hr (b) and then further incubated with 50 pM TGF-β for 7 hr. The luciferase activity in cells treated without cholesterol was taken as 100% (a). […] (H) Cells were incubated with 0.0625 and 0.125 pM TGF-β1 in the presence of increasing concentrations of cholesterol, as indicated. […] The experiments were carried out in triplicate.

cholesterol synthesis = settings: 1 uM; as described previously; cited from earlier work
TβR-II = test: TGF-β1-induced degradation of TβR-II, Western blot; type: cell-based; settings: 1 μM, 16 hr; Mv1Lu cells
Protocol: (E) Cells were treated with several concentrations of cholesterol (a,b) or LDL (c,d) as indicated in the presence and absence of 1% β-CD at 37° C. for 1 hr and further incubated with 50 pM TGF-β for 1 hr. The cell lysates were then subjected to 7.5% SDS-PAGE and Western blot analysis using antibodies to TβR-II and α-actin (a,c). The relative intensities of TβR-II and α-actin on the blot were quantified by densitometry (b,d). The ratio of the relative intensities of TβR-II and α-actin in cells treated without TGF-β1 was taken as the 100% level of TβR-II.
(§1) (F, G) Cells were treated with or without 1 μM lovastatin/fluvastatin or nystatin (25 μg/ml)/cholesterol (50 μg/ml) at 37° C. for 16 hr or 1 hr, respectively. The treated cells were directly analyzed by sucrose density gradient ultracentrifugation analysis (F) or further incubated with 50 pM TGF-β at 37° C. for several time periods as indicated (G). Western blot analysis of the sucrose density gradient fractions (F) and of TGF-β1-treated cell lysates (G) was performed using antibody to TβR-II. The relative levels of TβR-II and α-actin were quantified by densitometry. Fractions ⅘ and 7 represent lipid raft/caveolae and non-lipid raft fractions, respectively. The asterisk (*) indicates the increased level of TβR-II in the fraction (F). […] The quantitative data from three independent analyses is shown (G, bottom). […]

TβR-I and TβR-II = test: Lipid raft / non-lipid raft localization by sucrose density gradient ultracentrifugation, Mv1Lu cells; type: cell-based, mink; settings: 1 μM statin 16 hr; nystatin 25 μg/ml or cholesterol 50 μg/ml 1 hr
Protocol: (A, B, C, D) Cells were treated with or without 50 μg/ml cholesterol (A,B,C,D) or several concentrations of cholesterol, as indicated in the presence and absence of 1% β-CD (E) at 37° C. for 1 hr and further incubated with (C,D) and without (A,B) 50 pM TGF-β1 for 1 hr. The cell lysates from these treated cells were subjected to sucrose density gradient ultracentrifugation. After ultracentrifugation, fractions were collected and analyzed by 7.5% SDS-PAGE followed by Western blot analysis using antibodies to TβR-I, TβR-II and caveolin-1. […] Fractions 4 and 5 represent fractions containing lipid rafts/caveolae whereas fractions 7 and 8 represent non-lipid raft fractions.
as §1, with “densitometry.” for “densitometry. Fractions ⅘ and 7 represent lipid raft/caveolae and non-lipid raft fractions, respectively. The asterisk (*) indicates the increased level of TβR-II in the fraction (F).”

## CC(C)CCC[C@@H](C)[C@H]1CC[C@H]2[C@@H]3CC=C4C[C@@H](O)CC[C@]4(C)[C@H]3CC[C@]12C [cholesterol]
PAI-1 expression; LDL 50 μg protein/ml or cholesterol 50 μg/ml, 1 hr
  suppression of TGF-β1-induced PAI-1 expression (FIG. 2D): 50-60%

## CC(C)n1c(/C=C/C(O)CC(O)CC(=O)O)c(-c2ccc(F)cc2)c2ccccc21 (stereo not drawn) [fluvastatin]
Cholesterol synthesis
  inhibition of cholesterol synthesis: > 90%
TβR-II
  effect on degradation of TβR-II induced by TGF-β1 (FIG. 5G): appeared to suppress
PAI-1 expression; 1 μM, 16 hr
  enhancement of PAI-1 expression: enhanced
TβR-I and TβR-II
  plasma membrane microdomain localization of TβR-II (FIG. 5F): increased the localization of TβR-II in non-lipid raft microdomains

## CC[C@H](C)C(=O)O[C@H]1C[C@@H](C)C=C2C=C[C@H](C)[C@H](CC[C@@H]3C[C@@H](O)CC(=O)O3)[C@H]21 [lovastatin]
Cholesterol synthesis
  inhibition of cholesterol synthesis: > 90%
